Experimental data reported in PubChem BioAssay AID248 (DTP/NCI, 2004).
The list is a part of this screen's results and no random one: it is rich in T/C values a quarter to a half above the control, in often repeated tests (any T/C) and in doses without a T/C. Further doses and runs are listed elsewhere. T/C gives the treated animals as a percentage of the vehicle group. Some entries give survivors of the animals treated and no T/C: the source holds a T/C of zero for them, seemingly a mark for toxic or unscored doses. Some doses without a T/C left all or most animals alive at the check, yet need not have been tolerated: the source hardly ever lists a survival T/C far under the control, and the zero likely stands for such cases as well. Counts of survivors are from the toxicity check (mostly the fifth day) where no day follows; animals may have died later. Schedule codes are those of the source, read here as Q, the interval in days (D) or hours (H), X, the number of doses. Some doses were run more than once; the values are given in rising order. Where survival is the endpoint, this PubChem deposit counts one and a half times the control or more as active, and values a quarter to a half above the control carry no call in these data; other NCI protocols may use other cut-offs.

System: L1210 leukemia ip in BDF1 mice, survival T/C
Assay: NCI In Vivo Anticancer Drug Screen. Data for tumor model L1210 Leukemia (intraperitoneal) in B6D2F1 (BDF1) mice
Details: T/C endpoint: mean survival time, higher T/C = longer survival
[1] = dose: 400.0 mg/kg/injection, schedule: Q01DX001 (ip), vehicle: saline
[2] = dose: 200.0 mg/kg/injection, schedule: Q01DX001 (ip), vehicle: saline
[3] = dose: 150.0 mg/kg/injection, schedule: Q01DX001 (ip), vehicle: carboxymethylcellulose (CMC)
[4] = dose: 300.0 mg/kg/injection, schedule: Q01DX001 (ip), vehicle: carboxymethylcellulose (CMC)
[5] = dose: 200.0 mg/kg/injection, schedule: Q04DX002 (ip), vehicle: Klucel (hydroxypropylcellulose) (HPC)
[6] = dose: 100.0 mg/kg/injection, schedule: Q01DX009 (ip), vehicle: saline with Tween-80
[7] = dose: 400.0 mg/kg/injection, schedule: Q01DX009 (ip), vehicle: saline with Tween-80

## CCc1cc[c]([Hg][Cl])o1
dose: 50.0 mg/kg/injection, schedule: Q01DX001 (ip), vehicle: other
  survivor count: 3 of 6
dose: 100.0 mg/kg/injection, schedule: Q01DX001 (ip), vehicle: other
  survivor count: 0 of 6
dose: 200.0 mg/kg/injection, schedule: Q01DX001 (ip), vehicle: other
  survivor count: 1 of 6
dose: 400.0 mg/kg/injection, schedule: Q01DX001 (ip), vehicle: other
  survivor count: 0 of 6

## C=C1CC2(CCCC3(CC(=C)C(=O)O3)C2(C)C)OC1=O (stereo not drawn)
[1]
  survivor count: 3 of 3

## CC(C)(C)c1cc(C[P+](c2ccccc2)(c2ccccc2)c2ccccc2)cc(C(C)(C)C)c1O
dose: 6.25 mg/kg/injection, schedule: Q01DX009 (ip), vehicle: saline
  survivor count: 3 of 6
dose: 12.5 mg/kg/injection, schedule: Q04DX003 (ip), vehicle: saline
  survivor count: 3 of 6
dose: 25.0 mg/kg/injection, schedule: Q04DX003 (ip), vehicle: saline
  survivor count: 1 of 6
dose: 50.0 mg/kg/injection, schedule: Q04DX003 (ip), vehicle: saline
  survivor count: 0 of 6
dose: 100.0 mg/kg/injection, schedule: Q04DX003 (ip), vehicle: saline
  survivor count: 0 of 6
dose: 200.0 mg/kg/injection, schedule: Q04DX003 (ip), vehicle: saline
  survivor count: 1 of 6
dose: 400.0 mg/kg/injection, schedule: Q04DX003 (ip), vehicle: saline
  survivor count: 1 of 6

## COc1ccc(N=CN(C)C)cc1
[2]
  survivor count: 0 of 4
[1]
  survivor count: 0 of 4

## CC(C)=CN1CCOCC1
dose: 200.0 mg/kg/injection, schedule: Q01DX009 (ip), vehicle: Klucel (hydroxypropylcellulose) (HPC)
  survivor count: 3 of 6
dose: 400.0 mg/kg/injection, schedule: Q01DX009 (ip), vehicle: Klucel (hydroxypropylcellulose) (HPC)
  survivor count: 0 of 6

## c1ccc(N=Nc2ccc[nH]2)cc1
dose: 200.0 mg/kg/injection, schedule: Q01DX009 (ip), vehicle: acetone
  survivor count: 0 of 6

## C/C(=N\NC(N)=S)C1OCCc2ccccc21 (stereo not drawn)
dose: 40.0 mg/kg/injection, schedule: Q01DX001 (ip), vehicle: saline
  survivor count: 1 of 6
dose: 80.0 mg/kg/injection, schedule: Q01DX001 (ip), vehicle: saline
  survivor count: 0 of 6

## O=C(CBr)Nc1ccccc1S(=O)(=O)F
dose: 75.0 mg/kg/injection, schedule: Q04DX003 (ip), vehicle: carboxymethylcellulose (CMC)
  survivor count: 0 of 6
[3]
  survivor count: 2 of 6
[4]
  survivor count: 1 of 6

## [C-]#[N+]C(C)(CC)c1ccccc1 (stereo not drawn)
dose: 35.0 mg/kg/injection, schedule: Q04DX003 (ip), vehicle: acetone
  survivor count: 6 of 6
dose: 50.0 mg/kg/injection, schedule: Q01DX001 (ip), vehicle: acetone
  survivor count: 3 of 6
dose: 55.0 mg/kg/injection, schedule: Q04DX003 (ip), vehicle: acetone
  survivor count: 6 of 6
dose: 80.0 mg/kg/injection, schedule: Q04DX003 (ip), vehicle: acetone
  survivor count: 4 of 6
dose: 100.0 mg/kg/injection, schedule: Q01DX001 (ip), vehicle: acetone
  survivor count: 0 of 6
dose: 200.0 mg/kg/injection, schedule: Q01DX001 (ip), vehicle: acetone
  survivor count: 0 of 6
dose: 400.0 mg/kg/injection, schedule: Q01DX001 (ip), vehicle: acetone
  survivor count: 0 of 6

## CC([NH-])C(=O)O.CC([NH-])C(=O)O.CC([NH-])C(=O)O.[Co+3] (stereo not drawn)
dose: 200.0 mg/kg/injection, schedule: Q01DX009 (ip), vehicle: water
  survivor count: 4 of 6
dose: 200.0 mg/kg/injection, schedule: Q04DX002 (ip), vehicle: saline with Tween-80
  survivor count: 0 of 3

## OCCNC(=S)SCc1ccccc1
dose: 400.0 mg/kg/injection, schedule: Q01DX009 (sc), vehicle: olive oil, sesame oil, peanut oil
  survivor count: 3 of 6

## ClCCC[S][Pb]([c]1ccccc1)([c]1ccccc1)[c]1ccccc1
dose: 100.0 mg/kg/injection, schedule: Q04DX002 (sc), vehicle: olive oil, sesame oil, peanut oil
  survivor count: 2 of 3

## Cc1ccc(/C=C/c2ccccn2)cc1
dose: 400.0 mg/kg/injection, schedule: Q01DX009 (ip), vehicle: carboxymethylcellulose (CMC)
  survivor count: 1 of 3 and 3 of 6

## COc1ccc(NC(=O)NCc2cccc(Cl)c2)cc1
[5]
  T/C: 125 % of control

## CCCCOP(=O)(/C=C\c1ccccn1)OCCCC
dose: 400.0 mg/kg/injection, schedule: Q04DX002 (ip), vehicle: carboxymethylcellulose (CMC)
  survivor count: 1 of 3 and 3 of 6

## CCOC(=O)/C(C#N)=C(\C)CC(C)C
[2]
  survivor count: 1 of 4
[1]
  survivor count: 0 of 4

## Cc1ccc2[nH]c3c(c2c1)C[P+](Cc1cccc2ccccc12)(c1ccccc1)CC3 (stereo not drawn)
dose: 400.0 mg/kg/injection, schedule: Q01DX001 (ip), vehicle: Klucel (hydroxypropylcellulose) (HPC)
  survivor count: 6 of 6

## O=NN(CCCl)C(=O)Nc1ccc(CCCl)cc1
dose: 5.0 mg/kg/injection, schedule: Q01DX001 (ip), vehicle: carboxymethylcellulose (CMC)
  T/C: 129 % of control
dose: 75.0 mg/kg/injection, schedule: Q01DX009 (ip), vehicle: carboxymethylcellulose (CMC)
  survivor count: 6 of 6
dose: 112.5 mg/kg/injection, schedule: Q01DX001 (ip), vehicle: carboxymethylcellulose (CMC)
  survivor count: 6 of 6
dose: 112.5 mg/kg/injection, schedule: Q01DX009 (ip), vehicle: carboxymethylcellulose (CMC)
  survivor count: 3 of 6
[3]
  survivor count: 3 of 6
[4]
  survivor count: 2 of 6

## CC(C)C(=O)[O][Pb]([c]1ccccc1)([c]1ccccc1)[c]1ccccc1
dose: 100.0 mg/kg/injection, schedule: Q04DX002 (ip), vehicle: Klucel (hydroxypropylcellulose) (HPC)
  survivor count: 0 of 3
[5]
  survivor count: 0 of 3
dose: 400.0 mg/kg/injection, schedule: Q04DX002 (ip), vehicle: Klucel (hydroxypropylcellulose) (HPC)
  survivor count: 0 of 3

## CCCCCCCCCCOC(=O)CCN1CC1
[6]
  survivor count: 4 of 6
dose: 200.0 mg/kg/injection, schedule: Q01DX009 (ip), vehicle: saline with Tween-80
  survivor count: 0 of 6
[7]
  survivor count: 0 of 6
dose: 400.0 mg/kg/injection, schedule: Q04DX003 (ip), vehicle: saline with Tween-80
  survivor count: 6 of 6

## O=C1OC(c2ccccc2)=C/C1=C/c1ccc(Cl)cc1
dose: 200.0 mg/kg/injection, schedule: Q01DX001 (ip), vehicle: alcohol
  survivor count: 6 of 6
dose: 400.0 mg/kg/injection, schedule: Q01DX001 (ip), vehicle: alcohol
  survivor count: 6 of 6

## O=C(CBr)c1ccc(F)cc1
dose: 25.0 mg/kg/injection, schedule: Q01DX015 (ip), vehicle: carboxymethylcellulose (CMC)
  survivor count: 6 of 6
dose: 35.0 mg/kg/injection, schedule: Q01DX015 (ip), vehicle: carboxymethylcellulose (CMC)
  survivor count: 6 of 6
dose: 50.0 mg/kg/injection, schedule: Q01DX015 (ip), vehicle: carboxymethylcellulose (CMC)
  survivor count: 5 of 6
dose: 100.0 mg/kg/injection, schedule: Q01DX001 (ip), vehicle: saline
  survivor count: 0 of 6
[2]
  survivor count: 0 of 6
[1]
  survivor count: 0 of 6

## CCCCC(c1nc2c(c3c1CCCC3)CCCC2)C(O)(C(F)(F)F)C(F)(F)F (stereo not drawn)
[7]
  survivor count: 4 of 6

## CC1(C)CCC2(C(=O)OC3OC(CO)C(O)C(O)C3O)CCC3(CO)C(=CCC4C5(C)CC(O)C(O)C(C)(C(=O)OC6OC(CO)C(O)C(O)C6O)C5CCC43C)C2C1 (stereo not drawn)
dose: 150.0 mg/kg/injection, schedule: Q01DX001 (sc), vehicle: steroid suspending solution
  survivor count: 3 of 6

## NNc1ccc(-c2ccc(NN)cc2)cc1
dose: 100.0 mg/kg/injection, schedule: Q04DX003 (ip), vehicle: saline with Tween-80
  survivor count: 0 of 6

## CCSC1=C(SCC)C(=O)C(SCC)=C(SCC)C1=O
[6]
  survivor count: 6 of 6

## COC1=C(Br)C(=O)C(Br)=C(OC)C1=O
dose: 400.0 mg/kg/injection, schedule: Q04DX002 (ip), vehicle: other
  survivor count: 0 of 3

## O=[N+]([O-])c1ccc(F)c(Cl)c1
dose: 200.0 mg/kg/injection, schedule: Q01DX009 (ip), vehicle: other
  survivor count: 4 of 6
dose: 400.0 mg/kg/injection, schedule: Q01DX009 (ip), vehicle: other
  survivor count: 0 of 6

## COc1ccc2c(c1)CCCC2CC(=O)c1ccccc1 (stereo not drawn)
dose: 400.0 mg/kg/injection, schedule: Q04DX003 (ip), vehicle: acetone
  survivor count: 6 of 6
